Experimental data: PubChem BioAssay AID1159584 (Peter MacCallum Cancer Centre, 2016)
The deposit covers about 18,000 reagents; below is a random part of them. Reagent sequences are not shown. Not given: the amount of reagent, the time to read-out.

Assay: 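Genes whose loss is lethal only together with E-cadherin loss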 (primary screen)
Cell system: human MCF10A breast epithelial cells, parental and CDH1-null
Reagents: siRNA against human genes
Measured: 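Cell viability by CellTiter-Glo ATP luminescence, each line scaled to the mean of mock wells across plates, then CDH1-null over parental ratio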
Direction: CDH1-null / parental viability ratio: higher = CDH1-null cells survive relatively better than parental; CDH1-null viability vs mock: higher = more viable CDH1-null cells; parental viability vs mock: higher = more viable parental cells

| Target gene | PubChem SID | CDH1-null / parental viability ratio | CDH1-null viability vs mock (fraction of mock) | parental viability vs mock (fraction of mock) |
| --- | --- | --- | --- | --- |
| CHAD | SID135622086 | 0.65 | 0.31 | 0.48 |
| FGF5 | SID152151075 | 0.92 | 0.81 | 0.88 |
| HOXC4 | SID152147160 | 0.85 | 0.74 | 0.87 |
| IRX2 | SID135625065 | 0.96 | 0.81 | 0.84 |
| KIF20A | SID134310683 | 0.88 | 0.72 | 0.82 |
| ARHGEF19 | SID152156605 | 1.13 | 1.02 | 0.9 |
| LIAS | SID134314674 | 0.92 | 0.83 | 0.9 |
| UBASH3A | SID134313482 | 1.03 | 0.99 | 0.96 |
| KRT33B | SID135622104 | 0.9 | 1.13 | 1.25 |
| PNKP | SID56479144 | 1.17 | 0.77 | 0.66 |
| TESK1 | SID152149255 | 0.98 | 0.88 | 0.9 |
| COA8 | SID135622837 | 1.17 | 0.94 | 0.8 |
| POLR2D | SID134316254 | 1.19 | 0.5 | 0.42 |
| ALCAM | SID152150302 | 1.05 | 0.6 | 0.57 |
| CD68 | SID135622085 | 1.09 | 0.98 | 0.9 |
| CNPY3 | SID152156146 | 1.1 | 0.53 | 0.48 |
| IL17RE | SID152147101 | 0.87 | 0.66 | 0.76 |
| MS4A3 | SID135623348 | 1.13 | 0.98 | 0.87 |
| OR8U9 | SID135625175 | 1.11 | 0.52 | 0.47 |
| OR51M1 | SID152146846 | 0.8 | 0.32 | 0.4 |
| CLDN11 | SID135623712 | 1.06 | 1 | 0.94 |
| ARHGAP19 | SID152152163 | 1.11 | 0.89 | 0.8 |
| MMP2 | SID135621115 | 1.14 | 0.98 | 0.86 |
| TXNDC15 | SID152154598 | 0.71 | 0.44 | 0.62 |
| PTP4A1 | SID152156438 | 1.13 | 0.93 | 0.82 |
| NRG1 | SID135620849 | 0.68 | 0.54 | 0.79 |
| IFIT2 | SID152148799 | 0.98 | 0.86 | 0.88 |
| ACE2 | SID134311184 | 1.24 | 0.82 | 0.66 |
| SLC25A28 | SID152152427 | 0.7 | 0.58 | 0.83 |
| LACTB2 | SID134324629 | 1.51 | 1.27 | 0.84 |
| DSCR4 | SID135622253 | 1 | 0.72 | 0.72 |
| LINC03042 | SID134329562 | 0.91 | 1.12 | 1.23 |
| TMEM121B | SID152152285 | 1.11 | 0.69 | 0.62 |
| C12orf42 | SID135624658 | 0.79 | 0.62 | 0.78 |
| STAT3 | SID135620695 | 1.02 | 0.92 | 0.9 |
| KRTAP4-12 | SID135622547 | 1.02 | 0.84 | 0.82 |
| EMSY | SID152148170 | 1 | 0.76 | 0.76 |
| OSBPL2 | SID134314933 | 1.23 | 0.87 | 0.71 |
| SNED1 | SID152148611 | 1.02 | 1.02 | 1 |
| UBXN10 | SID152155385 | 1.08 | 0.82 | 0.76 |
| RGS4 | SID152148559 | 1.04 | 0.77 | 0.74 |
| PRAMEF4 | SID152150001 | 1.01 | 0.73 | 0.72 |
| GHRH | SID152153701 | 1.03 | 0.64 | 0.62 |
| STXBP2 | SID134323483 | 1.88 | 0.62 | 0.33 |
| ARL14EP | SID134320005 | 0.97 | 0.64 | 0.66 |
| SNTB2 | SID152152578 | 1 | 0.96 | 0.96 |
| SERPINB2 | SID135622007 | 1.07 | 0.62 | 0.58 |
| CPSF3 | SID134311753 | 1.04 | 0.56 | 0.54 |
| TEDC1 | SID135623490 | 1.28 | 0.5 | 0.39 |
| RPL37A | SID152152492 | 1.35 | 0.35 | 0.26 |
| COG5 | SID152154697 | 1.18 | 0.79 | 0.67 |
| L3MBTL2 | SID152149444 | 0.99 | 1.08 | 1.09 |
| DCK | SID56479088 | 0.55 | 0.36 | 0.66 |
| GNG2 | SID152152894 | 0.74 | 0.55 | 0.74 |
| XRCC3 | SID152151577 | 0.92 | 0.88 | 0.96 |
| ITGB6 | SID134312945 | 0.81 | 0.78 | 0.96 |
| GALNT3 | SID152147671 | 0.97 | 0.7 | 0.72 |
| KCTD20 | SID134322294 | 1.17 | 0.94 | 0.8 |
| KIAA2012 | SID152147286 | 1.24 | 1.12 | 0.9 |
| DCD | SID152151910 | 0.85 | 0.53 | 0.62 |
| LRRN3 | SID152151828 | 1.17 | 1.04 | 0.89 |
| TSPY1 | SID152151493 | 1.27 | 1.44 | 1.13 |
| ZNF695 | SID135622477 | 0.86 | 0.61 | 0.71 |
| PCDHB13 | SID134317751 | 1.21 | 0.82 | 0.68 |
| MGAT5B | SID134319813 | 1.14 | 0.66 | 0.58 |
| SLC26A4 | SID152151742 | 1.07 | 1.37 | 1.28 |
| TRAP1 | SID152156745 | 0.91 | 0.8 | 0.88 |
| SNRPE | SID152151034 | 1.44 | 0.56 | 0.39 |

In a second layout: entries from further up
Target gene,PubChem SID,CDH1-null / parental viability ratio,CDH1-null viability vs mock (fraction of mock),parental viability vs mock (fraction of mock)
EMSY,SID152148170,1,0.76,0.76
OSBPL2,SID134314933,1.23,0.87,0.71
SNED1,SID152148611,1.02,1.02,1
UBXN10,SID152155385,1.08,0.82,0.76
RGS4,SID152148559,1.04,0.77,0.74
PRAMEF4,SID152150001,1.01,0.73,0.72
GHRH,SID152153701,1.03,0.64,0.62
STXBP2,SID134323483,1.88,0.62,0.33
ARL14EP,SID134320005,0.97,0.64,0.66
SNTB2,SID152152578,1,0.96,0.96
SERPINB2,SID135622007,1.07,0.62,0.58
